# Assay results reported in PubChem BioAssay AID1345085 (National Center for Advancing Translational Sciences (NCATS), 2018).
# The inconclusive results got no clear call from the source; some entries with a clear call stand among them for comparison. Potencies beside an inconclusive call are fits to weak or partial responses and may not hold up. The source made the active and inactive calls. Calls follow the shape of the dose curve; as a rule, active = well fitted cell-killing curve with a large enough effect; inconclusive = small, poorly fitted or top-dose-only effect, or effect the other way; inactive = no such curve, though single readings can be large or run the other way.
# Tested on: CASKI
# Assay: Confirmatory qHTS for gynecologic anti-cancer compounds from libraries of approved drugs and bioactive compounds; also: nearly all actives have a fitted effect of over 55% in size
# Conditions: gynecologic cancer cell panel viability, ATPlite luminescence, 48 h; series mostly up to 57.6 µM; activity change, negative = viability loss: at the top concentration
# How it was run: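 1,000 cells/well; 16 h pre-incubation 37 C, 5% CO2; pin-transferred cpd in DMSO, 11 conc (1:3), 57.5 uM–0.977 nM; 48 h; ATPlite, 15 min RT; luminescence → IC50.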
# % is scaled to controls: 0 for no effect and ±100 for the full control effect; potency is read from the fitted curve at half-maximal effect.
SMILES,"activity change, negative = viability loss",Potency
CN(C)c1ccc(-c2nc3ncc(Cl)c(N4CCN(CC(=O)Nc5nccs5)CC4)c3[nH]2)cc1,inactive: -25.2% [at 19.5 µM],–
CC(C)Nc1cc(-c2c[nH]c(C(=O)N[C@H](CO)c3cccc(Cl)c3)c2)c(Cl)cn1,–,"inconclusive: 19.3 µM [cytotoxic, partial curve, poor fit]"
NC(=O)c1ccc2nc(-c3ccc(Oc4ccc(Cl)cc4)cc3)[nH]c2c1,–,"inconclusive: 24.3 µM [cytotoxic, partial curve, poor fit]"
CS(=O)(=O)c1ccc(-c2cnc(N)c(C(=O)Nc3ccccc3)n2)cc1,–,"inconclusive: 0.0122 µM [rising, full curve]"
CN(C[C@@H]1COCCO1)S(=O)(=O)Nc1ccc2ccc3ncc(-c4cnn(C)c4)cc3c(=O)c2c1,inactive: -7.46%,–
CC(C)(C)C(=O)OCOP(=O)(COCCn1cnc2c(N)ncnc21)OCOC(=O)C(C)(C)C,inactive: -18%,–
CN1C2CCC1CC(OC(=O)[C@H](CO)c1ccccc1)C2 (stereo not given in full),inactive: -4.01%,–
CC1=C(/C=C/C(C)=C/C=C/C(C)=C/C(=O)Nc2ccc(O)cc2)C(C)(C)CCC1,–,"inconclusive: 43.2 µM [cytotoxic, single point]"
CC(C)Oc1ccc(C(=O)NC(CNC(=O)CN(C)C)Cc2ccc(-c3cn4cccc(C(C)O)c4n3)cc2)cc1Cl (stereo not given),–,"inconclusive: 0.863 µM [cytotoxic, full curve]"
CNc1nccc(-c2cccnc2Oc2cc(C(=O)Nc3cccc(C(F)(F)F)c3)ccc2C)n1,–,"inconclusive: 13.7 µM [cytotoxic, full curve, poor fit]"
